Laboratory results from the supplement of paper PMC12823440, “Inhibitors supercharge kinase turnover through native proteolytic circuits” (Nature, 2025).
Where a name gives a salt, the structure may show the parent alone. Some of the results follow. Hit calls seldom repeat between salt and free forms of one compound.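 In K562 cells expressing nanoluciferase-fused kinases, luminescence was recorded at 4 h intervals between 2 and 18 h, normalized as percent of control with DMSO at 100% and a positive control at 0%. A significant (2 sigma) signal drop marks a time point as decreased. The authors' rule for a hit is not shown and takes in more than the number of time points.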

Chains of the proteins cited; added tags and fusions are not shown. Lines headed by an entry give the natural chain unless they say otherwise; changes in a name come on top.
UniProt Q05397, whole entry, looked up: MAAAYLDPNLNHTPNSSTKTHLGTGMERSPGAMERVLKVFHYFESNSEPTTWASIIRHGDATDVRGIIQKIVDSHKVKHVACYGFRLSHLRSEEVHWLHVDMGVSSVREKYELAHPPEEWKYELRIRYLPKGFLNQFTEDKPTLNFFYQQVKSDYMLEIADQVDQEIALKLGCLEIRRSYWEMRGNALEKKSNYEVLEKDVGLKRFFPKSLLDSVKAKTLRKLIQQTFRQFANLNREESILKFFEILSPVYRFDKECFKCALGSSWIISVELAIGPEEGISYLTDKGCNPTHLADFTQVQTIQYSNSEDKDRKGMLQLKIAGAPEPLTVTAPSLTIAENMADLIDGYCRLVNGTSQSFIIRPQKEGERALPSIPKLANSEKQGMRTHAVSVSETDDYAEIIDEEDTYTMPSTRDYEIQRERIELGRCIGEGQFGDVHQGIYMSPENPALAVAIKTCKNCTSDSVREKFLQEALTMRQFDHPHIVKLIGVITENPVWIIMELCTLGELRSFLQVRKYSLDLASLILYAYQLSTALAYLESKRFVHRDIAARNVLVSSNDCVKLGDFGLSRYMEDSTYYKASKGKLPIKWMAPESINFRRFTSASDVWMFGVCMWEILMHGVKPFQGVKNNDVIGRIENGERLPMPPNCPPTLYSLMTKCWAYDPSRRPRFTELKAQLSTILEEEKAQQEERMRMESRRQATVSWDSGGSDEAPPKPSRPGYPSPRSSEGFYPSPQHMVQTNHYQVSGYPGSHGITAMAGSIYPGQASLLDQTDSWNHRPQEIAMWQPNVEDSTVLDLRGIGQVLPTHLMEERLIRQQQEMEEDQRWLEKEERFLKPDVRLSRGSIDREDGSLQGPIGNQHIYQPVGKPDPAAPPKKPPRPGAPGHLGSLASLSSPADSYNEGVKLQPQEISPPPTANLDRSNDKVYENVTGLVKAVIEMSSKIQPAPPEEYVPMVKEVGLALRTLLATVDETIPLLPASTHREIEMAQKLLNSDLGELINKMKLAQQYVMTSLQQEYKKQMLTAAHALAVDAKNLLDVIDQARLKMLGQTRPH
UniProt Q13546: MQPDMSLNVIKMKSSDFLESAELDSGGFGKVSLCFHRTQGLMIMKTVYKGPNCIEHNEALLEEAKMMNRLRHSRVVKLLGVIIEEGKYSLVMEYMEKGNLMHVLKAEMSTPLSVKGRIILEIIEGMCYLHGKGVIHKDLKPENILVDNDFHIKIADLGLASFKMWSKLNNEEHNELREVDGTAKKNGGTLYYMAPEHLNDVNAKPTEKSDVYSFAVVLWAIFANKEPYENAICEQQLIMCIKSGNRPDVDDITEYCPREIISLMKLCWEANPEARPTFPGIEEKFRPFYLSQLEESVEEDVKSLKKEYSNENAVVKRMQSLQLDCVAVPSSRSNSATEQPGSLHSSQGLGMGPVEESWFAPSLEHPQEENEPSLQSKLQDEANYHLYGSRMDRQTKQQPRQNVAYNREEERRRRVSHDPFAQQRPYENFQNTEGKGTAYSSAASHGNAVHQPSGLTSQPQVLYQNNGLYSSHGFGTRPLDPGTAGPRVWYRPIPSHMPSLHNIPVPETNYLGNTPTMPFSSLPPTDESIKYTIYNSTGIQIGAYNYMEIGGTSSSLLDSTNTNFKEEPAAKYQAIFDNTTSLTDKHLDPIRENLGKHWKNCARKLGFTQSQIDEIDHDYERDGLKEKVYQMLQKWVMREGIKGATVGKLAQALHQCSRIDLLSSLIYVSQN
UniProt Q01974, whole entry: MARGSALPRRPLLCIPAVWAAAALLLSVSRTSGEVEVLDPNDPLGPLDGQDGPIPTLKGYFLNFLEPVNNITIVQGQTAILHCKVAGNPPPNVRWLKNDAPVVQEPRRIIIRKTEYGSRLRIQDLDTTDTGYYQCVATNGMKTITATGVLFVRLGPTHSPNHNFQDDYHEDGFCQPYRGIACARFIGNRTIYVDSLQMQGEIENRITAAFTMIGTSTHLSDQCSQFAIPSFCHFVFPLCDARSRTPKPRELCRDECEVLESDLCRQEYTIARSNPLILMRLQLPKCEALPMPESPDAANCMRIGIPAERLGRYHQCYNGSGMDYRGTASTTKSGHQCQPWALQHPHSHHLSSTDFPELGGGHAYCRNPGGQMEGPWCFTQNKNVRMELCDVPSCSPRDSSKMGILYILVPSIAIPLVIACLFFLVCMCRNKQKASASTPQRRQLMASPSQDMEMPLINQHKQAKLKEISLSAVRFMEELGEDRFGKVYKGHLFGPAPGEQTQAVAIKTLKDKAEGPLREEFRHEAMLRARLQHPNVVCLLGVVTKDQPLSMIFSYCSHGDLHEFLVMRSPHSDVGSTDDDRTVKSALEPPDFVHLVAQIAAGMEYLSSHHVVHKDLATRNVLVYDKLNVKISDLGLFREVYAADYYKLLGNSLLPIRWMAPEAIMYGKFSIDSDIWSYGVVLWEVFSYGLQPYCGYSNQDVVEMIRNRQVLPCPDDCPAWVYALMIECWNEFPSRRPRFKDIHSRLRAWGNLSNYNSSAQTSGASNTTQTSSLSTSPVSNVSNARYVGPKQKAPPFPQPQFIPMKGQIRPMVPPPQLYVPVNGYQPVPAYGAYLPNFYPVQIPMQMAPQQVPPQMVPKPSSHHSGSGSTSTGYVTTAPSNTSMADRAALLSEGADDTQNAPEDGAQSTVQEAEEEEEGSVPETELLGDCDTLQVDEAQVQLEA
UniProt Q9Y6E0: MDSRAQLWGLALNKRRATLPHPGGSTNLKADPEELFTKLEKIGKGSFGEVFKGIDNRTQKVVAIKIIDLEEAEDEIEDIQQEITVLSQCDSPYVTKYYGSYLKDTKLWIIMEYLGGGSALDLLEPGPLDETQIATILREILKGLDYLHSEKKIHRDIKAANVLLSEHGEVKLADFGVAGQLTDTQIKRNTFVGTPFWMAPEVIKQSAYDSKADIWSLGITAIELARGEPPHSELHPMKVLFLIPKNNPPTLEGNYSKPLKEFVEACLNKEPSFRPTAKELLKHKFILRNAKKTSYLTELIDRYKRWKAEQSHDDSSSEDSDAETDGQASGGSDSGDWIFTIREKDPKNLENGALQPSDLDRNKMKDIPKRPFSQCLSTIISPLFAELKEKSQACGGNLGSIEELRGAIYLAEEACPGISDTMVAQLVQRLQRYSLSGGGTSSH
UniProt Q15208: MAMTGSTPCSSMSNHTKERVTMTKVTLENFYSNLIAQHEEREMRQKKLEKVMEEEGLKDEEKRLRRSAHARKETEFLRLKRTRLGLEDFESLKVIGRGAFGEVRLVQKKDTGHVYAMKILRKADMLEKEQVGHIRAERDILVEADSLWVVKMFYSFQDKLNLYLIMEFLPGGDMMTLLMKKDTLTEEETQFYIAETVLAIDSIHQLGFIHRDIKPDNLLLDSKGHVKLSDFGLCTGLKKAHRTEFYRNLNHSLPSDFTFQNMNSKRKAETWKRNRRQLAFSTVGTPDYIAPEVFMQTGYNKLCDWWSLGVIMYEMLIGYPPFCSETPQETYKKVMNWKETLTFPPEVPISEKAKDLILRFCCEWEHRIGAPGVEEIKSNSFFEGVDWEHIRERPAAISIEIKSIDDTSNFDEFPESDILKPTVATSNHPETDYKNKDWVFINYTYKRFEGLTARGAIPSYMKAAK
UniProt P42680: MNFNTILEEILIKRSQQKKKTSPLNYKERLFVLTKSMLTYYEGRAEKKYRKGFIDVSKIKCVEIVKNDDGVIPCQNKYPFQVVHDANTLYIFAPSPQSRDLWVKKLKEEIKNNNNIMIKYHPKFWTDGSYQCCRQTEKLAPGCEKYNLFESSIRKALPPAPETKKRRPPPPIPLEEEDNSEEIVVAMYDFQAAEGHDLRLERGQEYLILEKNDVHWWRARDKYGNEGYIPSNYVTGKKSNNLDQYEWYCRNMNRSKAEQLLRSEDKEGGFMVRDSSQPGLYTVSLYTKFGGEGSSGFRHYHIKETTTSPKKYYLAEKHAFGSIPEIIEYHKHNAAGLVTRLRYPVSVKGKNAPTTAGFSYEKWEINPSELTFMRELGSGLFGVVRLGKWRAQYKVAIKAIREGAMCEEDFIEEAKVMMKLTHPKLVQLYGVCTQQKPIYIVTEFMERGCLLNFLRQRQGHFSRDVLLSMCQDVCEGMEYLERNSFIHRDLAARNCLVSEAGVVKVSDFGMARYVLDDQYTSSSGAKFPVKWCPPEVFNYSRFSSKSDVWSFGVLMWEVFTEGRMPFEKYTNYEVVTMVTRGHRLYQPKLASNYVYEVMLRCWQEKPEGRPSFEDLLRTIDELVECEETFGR
UniProt P29597: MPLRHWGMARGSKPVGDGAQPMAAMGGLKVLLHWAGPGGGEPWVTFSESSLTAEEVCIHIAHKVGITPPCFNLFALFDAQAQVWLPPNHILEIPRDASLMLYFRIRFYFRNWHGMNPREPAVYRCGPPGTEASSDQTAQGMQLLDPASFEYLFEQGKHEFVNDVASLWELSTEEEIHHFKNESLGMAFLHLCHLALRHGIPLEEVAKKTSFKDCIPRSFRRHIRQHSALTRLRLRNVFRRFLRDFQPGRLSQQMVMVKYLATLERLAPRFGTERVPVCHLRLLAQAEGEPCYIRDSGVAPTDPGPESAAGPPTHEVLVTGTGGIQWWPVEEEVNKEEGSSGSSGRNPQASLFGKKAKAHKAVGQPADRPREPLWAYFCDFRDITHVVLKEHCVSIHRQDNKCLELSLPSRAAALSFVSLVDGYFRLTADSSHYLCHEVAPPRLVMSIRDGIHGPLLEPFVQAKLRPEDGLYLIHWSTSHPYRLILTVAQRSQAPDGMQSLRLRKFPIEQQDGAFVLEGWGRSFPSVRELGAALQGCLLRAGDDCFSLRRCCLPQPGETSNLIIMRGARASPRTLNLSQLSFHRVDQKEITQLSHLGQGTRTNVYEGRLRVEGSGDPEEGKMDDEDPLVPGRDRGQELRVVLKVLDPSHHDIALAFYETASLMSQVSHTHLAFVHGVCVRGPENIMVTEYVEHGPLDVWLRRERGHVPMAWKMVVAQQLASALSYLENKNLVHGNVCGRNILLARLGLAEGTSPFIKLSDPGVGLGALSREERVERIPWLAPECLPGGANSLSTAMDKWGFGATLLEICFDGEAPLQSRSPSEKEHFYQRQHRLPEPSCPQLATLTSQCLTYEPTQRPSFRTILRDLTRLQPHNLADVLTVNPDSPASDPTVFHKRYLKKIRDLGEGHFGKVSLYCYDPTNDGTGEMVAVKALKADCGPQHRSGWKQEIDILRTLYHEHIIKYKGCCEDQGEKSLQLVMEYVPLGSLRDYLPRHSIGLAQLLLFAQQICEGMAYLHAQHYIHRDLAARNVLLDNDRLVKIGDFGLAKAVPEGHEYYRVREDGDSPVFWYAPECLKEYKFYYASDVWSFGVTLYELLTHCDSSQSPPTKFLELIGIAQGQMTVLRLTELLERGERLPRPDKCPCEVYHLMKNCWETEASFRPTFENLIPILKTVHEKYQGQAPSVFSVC
UniProt Q6PHR2: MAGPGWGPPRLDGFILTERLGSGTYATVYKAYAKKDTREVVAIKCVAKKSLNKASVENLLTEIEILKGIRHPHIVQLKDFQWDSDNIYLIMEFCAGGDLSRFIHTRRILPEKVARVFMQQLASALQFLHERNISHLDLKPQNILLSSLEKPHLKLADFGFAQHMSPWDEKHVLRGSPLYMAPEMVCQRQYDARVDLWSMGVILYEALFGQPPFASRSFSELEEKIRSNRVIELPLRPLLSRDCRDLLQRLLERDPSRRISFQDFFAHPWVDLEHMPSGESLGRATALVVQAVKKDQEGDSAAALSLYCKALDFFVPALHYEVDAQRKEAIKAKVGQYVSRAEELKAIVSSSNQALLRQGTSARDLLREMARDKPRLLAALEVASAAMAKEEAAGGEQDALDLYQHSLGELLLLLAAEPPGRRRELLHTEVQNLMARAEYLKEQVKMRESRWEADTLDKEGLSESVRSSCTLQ

Assays:
Assay in all cases: number of time points (of 5) at which kinase-Nluc abundance scored as decreased, DMSO-normalised (count); higher = more persistent destabilization
Conditions in all cases: K562; 2-18 h
PRKCA = PRKCA (UniProt P17252)
PTK2 = PTK2 (UniProt Q05397)
PTK2B = PTK2B (UniProt Q14289)
RAF1 = RAF1 (UniProt P04049)
[1] = biological target: RAF1_S257L (clone: RAF1_mut) (UniProt P04049)
RET = RET (UniProt P07949)
[2] = biological target: RET_M918T (clone: RET_mut) (UniProt P07949)
RIOK1 = RIOK1 (UniProt Q9BRS2)
RIPK1 = RIPK1 (UniProt Q13546)
RIPK2 = RIPK2 (UniProt O43353)
ROR2 = ROR2 (UniProt Q01974)
RPS6KA1 = RPS6KA1 (UniProt Q15418)
SPHK1 = SPHK1 (UniProt Q9NYA1)
SRC = SRC (UniProt P12931)
STK24 = STK24 (UniProt Q9Y6E0)
STK38 = STK38 (UniProt Q15208)
SYK = SYK (UniProt P43405)
TEC = TEC (UniProt P42680)
TYK2 = TYK2 (UniProt P29597)
ULK3 = ULK3 (UniProt Q6PHR2)

| SMILES | number of time points (PRKCA) | number of time points (PTK2) | number of time points (PTK2B) | number of time points (RAF1) | number of time points [1] | number of time points (RET) | number of time points [2] | number of time points (RIOK1) | number of time points (RIPK1) | number of time points (RIPK2) | number of time points (ROR2) | number of time points (RPS6KA1) | number of time points (SPHK1) | number of time points (SRC) | number of time points (STK24) | number of time points (STK38) | number of time points (SYK) | number of time points (TEC) | number of time points (TYK2) | number of time points (ULK3) |
| --- | --- | --- | --- | --- | --- | --- | --- | --- | --- | --- | --- | --- | --- | --- | --- | --- | --- | --- | --- | --- |
| COc1cc(C(=O)NC2CCN(C)CC2)ccc1Nc1ncc2c(n1)N(C1CCCC1)CC(F)(F)C(=O)N2C (10 µM) | 0 | 0 | 0 | 0 | 0 | 0 | 0 | 0 | 0 | 0 | 0 | 0 | 1 | 0 | 0 | 0 | 0 | 0 | 1 | 0 |
| CNC(=O)c1cccc(-c2ccc3c(N4CCOC[C@@H]4C)nc(N4CCOC[C@@H]4C)nc3n2)c1 [Vistusertib] (2.5 µM) | 0 | 0 | 0 | 4 | 2 | 4 | 5 | 0 | 4 | 3 | 0 | 0 | 0 | 0 | 0 | 2 | 0 | 0 | 4 | 3 |
| O=C(O)CCNC(=O)c1ccc(/N=N/c2ccc(O)c(C(=O)O)c2)cc1 [Balsalazide] (10 µM) | 0 | 0 | 0 | 0 | 0 | 0 | 0 | 0 | 0 | 0 | 0 | 0 | 0 | 0 | 0 | 0 | 0 | 0 | 0 | 0 |
| CCN(CC)CCCCNc1ncc2cc(-c3cc(OC)cc(OC)c3)c(NC(=O)NC(C)(C)C)nc2n1 (10 µM) | 0 | 0 | 0 | 0 | 0 | 0 | 0 | 0 | 0 | 0 | 0 | 0 | 0 | 0 | 0 | 0 | 0 | 0 | 0 | 0 |
| NC(=O)c1ccc2nc(-c3ccc(Oc4ccc(Cl)cc4)cc3)[nH]c2c1 (10 µM) | 0 | 0 | 0 | 0 | 0 | 0 | 0 | 0 | 0 | 0 | 0 | 0 | 0 | 0 | 0 | 0 | 0 | 0 | 0 | 0 |
| O=C(/C=C/c1ccc(O)c(O)c1)c1ccc(O)cc1O [Butein] (10 µM) | 0 | 0 | 0 | 2 | 3 | 0 | 0 | 2 | 3 | 4 | 0 | 0 | 0 | 0 | 0 | 1 | 0 | 2 | 3 | 5 |
| COc1cc(C)c(Sc2cnc(NC(=O)c3ccc(CNC(C)C(C)(C)C)cc3)s2)cc1C(=O)N1CCN(C(C)=O)CC1 (stereo not given) (2.5 µM) | 0 | 0 | 0 | 0 | 0 | 0 | 0 | 0 | 0 | 0 | 0 | 0 | 0 | 0 | 0 | 0 | 0 | 0 | 0 | 0 |
| N#C/C(=C\c1ccc(O)c(O)c1)C(=O)NCc1ccccc1 (10 µM) | 0 | 0 | 0 | 0 | 0 | 0 | 0 | 0 | 0 | 0 | 0 | 0 | 0 | 0 | 0 | 0 | 0 | 0 | 0 | 0 |
| CC[C@H](CO)Nc1nc(NCc2ccccc2)c2ncn(C(C)C)c2n1 [Seliciclib] (10 µM) | 0 | 0 | 0 | 0 | 0 | 0 | 0 | 0 | 0 | 0 | 0 | 0 | 0 | 0 | 0 | 0 | 0 | 0 | 0 | 0 |
| CN1CCN(C2CCN(C(=O)Nc3cc(Oc4ccc(NC(=O)C5(C(=O)Nc6ccc(F)cc6)CC5)c(F)c4)ccn3)CC2)CC1 [Golvatinib] (2.5 µM) | 0 | 0 | 0 | 2 | 3 | 0 | 0 | 1 | 0 | 4 | 0 | 0 | 0 | 0 | 0 | 0 | 0 | 0 | 3 | 2 |
| COc1cc2ncnc(Nc3cccc(Cl)c3F)c2cc1OC(=O)N1CCN(C)C[C@H]1C [Zorifertinib] (10 µM) | 0 | 0 | 0 | 0 | 0 | 0 | 0 | 0 | 0 | 0 | 0 | 0 | 0 | 0 | 0 | 0 | 0 | 0 | 0 | 0 |
| COc1ccc2c(C(=O)Nc3ccc(NC(=O)c4nn(C5CCN(C(=O)CC(C)(C)C#N)CC5)c5ccc(F)cc45)cc3Cl)cnn2c1 [Src Inhibitor 3] (2.5 µM) | 0 | 2 | 2 | 2 | 3 | 1 | 1 | 1 | 2 | 3 | 0 | 0 | 1 | 0 | 0 | 1 | 0 | 2 | 2 | 2 |
| CCN(CC)CCCCNc1ncc2cc(-c3c(Cl)cccc3Cl)c(NC(=O)NC(C)(C)C)nc2n1 (2.5 µM) | 0 | 2 | 0 | 2 | 0 | 1 | 1 | 0 | 0 | 0 | 0 | 0 | 0 | 0 | 0 | 1 | 0 | 0 | 4 | 0 |
| O=C(c1ccc(-c2ccc(Cl)cc2)o1)N(Cc1ccccn1)c1ccc(N2CCNCC2)cc1 [MK2-IN-1 (hydrochloride)] (10 µM) | 0 | 1 | 0 | 0 | 0 | 0 | 0 | 1 | 1 | 0 | 0 | 0 | 0 | 0 | 0 | 0 | 0 | 0 | 0 | 1 |
| CCN(CCO)CCCOc1ccc2c(Nc3cc(CC(=O)Nc4cccc(F)c4)[nH]n3)ncnc2c1 [Barasertib-HQPA] (10 µM) | 0 | 0 | 0 | 0 | 0 | 0 | 0 | 0 | 0 | 0 | 0 | 0 | 0 | 0 | 0 | 0 | 0 | 0 | 0 | 0 |
| Nc1ncnc2c1c(-c1ccc(Oc3ccccc3)cc1)cn2C1CCCC1 (2.5 µM) | 0 | 0 | 4 | 0 | 0 | 0 | 0 | 0 | 0 | 0 | 0 | 0 | 0 | 0 | 0 | 0 | 0 | 1 | 0 | 0 |
| CCN1CCN(Cc2ccc(C(=O)Nc3ccc(C)c(Oc4ccc5c(c4)CC(=O)N5)c3)cc2C(F)(F)F)CC1 (2.5 µM) | 0 | 2 | 2 | 2 | 4 | 2 | 0 | 2 | 3 | 3 | 0 | 0 | 1 | 0 | 0 | 1 | 0 | 1 | 3 | 3 |
| N#CC(=Cc1ccc(O)c(O)c1)C(=O)NCc1ccccc1 (mixture of isomers) (10 µM) | 0 | 0 | 0 | 0 | 0 | 0 | 0 | 0 | 0 | 0 | 0 | 0 | 0 | 0 | 0 | 0 | 0 | 0 | 0 | 0 |
| C=CC(=O)Nc1cccc(Nc2nc(Nc3ccc(OCCOC)cc3)ncc2F)c1 [Spebrutinib] (10 µM) | 0 | 2 | 0 | 1 | 0 | 0 | 0 | 1 | 0 | 0 | 0 | 0 | 0 | 0 | 0 | 0 | 0 | 0 | 0 | 0 |
| Cc1cc(C(=O)Nc2cccc(C(=O)Nc3cccc(C(F)(F)F)c3)c2)on1 (10 µM) | 0 | 0 | 0 | 0 | 0 | 0 | 0 | 0 | 0 | 0 | 0 | 0 | 0 | 0 | 0 | 0 | 0 | 0 | 0 | 0 |
| FC(F)(F)c1ccc(CNc2ccc(Cc3c[nH]c4ncc(Cl)cc34)cn2)cc1 (10 µM) | 0 | 0 | 0 | 0 | 0 | 0 | 0 | 0 | 0 | 0 | 0 | 0 | 1 | 0 | 0 | 0 | 0 | 0 | 0 | 0 |
| CCn1c(=O)c2cc(C(N)=O)c(N)nc2n(C2CC2)c1=O (10 µM) | 0 | 0 | 0 | 0 | 0 | 0 | 0 | 0 | 0 | 0 | 0 | 0 | 0 | 0 | 0 | 0 | 0 | 0 | 0 | 0 |

A portion of the results above:

| SMILES | number of time points (PRKCA) | number of time points (PTK2) | number of time points (PTK2B) | number of time points (RAF1) | number of time points [1] | number of time points (RET) | number of time points [2] | number of time points (RIOK1) | number of time points (RIPK1) | number of time points (RIPK2) | number of time points (ROR2) | number of time points (RPS6KA1) | number of time points (SPHK1) | number of time points (SRC) | number of time points (STK24) | number of time points (STK38) | number of time points (SYK) | number of time points (TEC) | number of time points (TYK2) | number of time points (ULK3) |
| --- | --- | --- | --- | --- | --- | --- | --- | --- | --- | --- | --- | --- | --- | --- | --- | --- | --- | --- | --- | --- |
| COc1cc(C)c(Sc2cnc(NC(=O)c3ccc(CNC(C)C(C)(C)C)cc3)s2)cc1C(=O)N1CCN(C(C)=O)CC1 (stereo not given) (2.5 µM) | 0 | 0 | 0 | 0 | 0 | 0 | 0 | 0 | 0 | 0 | 0 | 0 | 0 | 0 | 0 | 0 | 0 | 0 | 0 | 0 |
| N#C/C(=C\c1ccc(O)c(O)c1)C(=O)NCc1ccccc1 (10 µM) | 0 | 0 | 0 | 0 | 0 | 0 | 0 | 0 | 0 | 0 | 0 | 0 | 0 | 0 | 0 | 0 | 0 | 0 | 0 | 0 |
